Results are given in words; binding and its absence hold for the method and conditions named. Binding seen in cells or lysates may run through a third protein. Binding calls can cover weak binding; strength is not graded here. For part of these data: Where a sequence is shown, tags or fusion partners need not be part of it.

Assay [1] deals with T1, NEPN (bait of the immunoprecipitations from tumor lysates and from the liver metastasis site) (mouse) (UniProt Q9CQ76).
T1 sequence: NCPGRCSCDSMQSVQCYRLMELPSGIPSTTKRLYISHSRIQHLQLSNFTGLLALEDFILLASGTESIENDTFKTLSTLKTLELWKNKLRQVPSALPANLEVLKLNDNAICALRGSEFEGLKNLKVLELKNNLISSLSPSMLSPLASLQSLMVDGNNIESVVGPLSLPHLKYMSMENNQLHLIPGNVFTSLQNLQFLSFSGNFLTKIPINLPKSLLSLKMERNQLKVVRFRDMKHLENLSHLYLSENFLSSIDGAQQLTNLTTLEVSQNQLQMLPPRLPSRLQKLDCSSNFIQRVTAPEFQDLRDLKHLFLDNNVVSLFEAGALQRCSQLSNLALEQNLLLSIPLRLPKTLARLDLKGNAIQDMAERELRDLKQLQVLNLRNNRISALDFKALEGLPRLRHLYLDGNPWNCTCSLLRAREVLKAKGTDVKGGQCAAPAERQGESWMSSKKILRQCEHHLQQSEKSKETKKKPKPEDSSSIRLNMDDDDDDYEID
The assay is described as follows: co-IP.

The target of assay [2] is T2, NEPN (mouse NEPN, His-tagged, secreted into conditioned medium of A375-NEPN and NALM6-NEPN cells) (mouse) (UniProt Q9CQ76).
T2 sequence: T1 sequence
The assay is described as follows: co-IP.

As for “TGF-β (cytokine found in the NEPN immunoprecipitate of the liver metastasis site) (ligand)”, in assay [1], the binding result is listed as “binds”. For the substance “latent transforming growth factor β-binding protein (LTBP) (human (endogenous in A375 and NALM6))”, the binding result in assay [2] is “binds”.

“active TGFβ1 (human (endogenous in A375 and NALM6)) (ligand)”: the binding result in assay [2] was “binds”.

The values above are taken from article doi:10.1101/2025.09.29.679137.
